Source: doi:10.1101/2024.10.03.616587
Results are given in words; binding and its absence hold for the method and conditions named. In cells and extracts the contact can be indirect. Binding can be weak; no strength is given. Where a sequence is shown, tags or fusion partners need not be part of it.

The chains behind the UniProt entries cited, without tags or fusion partners. Where a name states a change or a piece, a line headed by the entry shows the natural chain unless it says otherwise.
UniProt Q14722: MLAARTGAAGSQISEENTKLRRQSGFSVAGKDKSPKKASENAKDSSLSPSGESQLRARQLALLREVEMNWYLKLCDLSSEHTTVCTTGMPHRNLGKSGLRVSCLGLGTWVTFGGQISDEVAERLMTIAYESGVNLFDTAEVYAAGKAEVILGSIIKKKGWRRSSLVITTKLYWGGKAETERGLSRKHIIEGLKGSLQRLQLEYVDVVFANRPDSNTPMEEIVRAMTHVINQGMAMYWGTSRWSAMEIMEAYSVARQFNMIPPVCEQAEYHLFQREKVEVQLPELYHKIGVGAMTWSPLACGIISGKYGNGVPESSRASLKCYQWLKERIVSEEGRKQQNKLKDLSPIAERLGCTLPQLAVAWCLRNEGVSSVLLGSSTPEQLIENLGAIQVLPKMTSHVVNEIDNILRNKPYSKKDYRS
UniProt P22460: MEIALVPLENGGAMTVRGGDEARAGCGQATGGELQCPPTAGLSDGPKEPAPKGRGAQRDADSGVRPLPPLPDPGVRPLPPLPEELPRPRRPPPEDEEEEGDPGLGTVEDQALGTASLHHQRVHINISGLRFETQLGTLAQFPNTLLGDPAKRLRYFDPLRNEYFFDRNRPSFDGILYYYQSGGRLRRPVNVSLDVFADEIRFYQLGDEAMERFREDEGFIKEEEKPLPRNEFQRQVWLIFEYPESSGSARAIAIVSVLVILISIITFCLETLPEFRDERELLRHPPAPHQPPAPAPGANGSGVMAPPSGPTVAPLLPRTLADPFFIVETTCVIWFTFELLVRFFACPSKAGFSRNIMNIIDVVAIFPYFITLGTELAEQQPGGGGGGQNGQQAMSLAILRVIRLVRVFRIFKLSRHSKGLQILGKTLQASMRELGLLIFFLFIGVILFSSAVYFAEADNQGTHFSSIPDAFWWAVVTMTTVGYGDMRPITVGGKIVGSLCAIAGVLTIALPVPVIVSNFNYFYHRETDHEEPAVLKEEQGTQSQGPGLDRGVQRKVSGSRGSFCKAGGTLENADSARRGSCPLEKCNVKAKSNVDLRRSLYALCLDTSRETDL

B1: Lgi3, FLAG-tagged (protein, UniProt Q8N145 31-548)
chain: KRPPKTPPCPPSCSCTRDTAFCVDSKAVPRNLPSEVISLTLVNAAFSEIQDGAFSHLPLLQFLLLNSNKFTLIGDNAFTGLSHLQYLFIENNDIWALSKFTFRGLKSLTHLSLANNNLQTLPRDIFRPLDILNDLDLRGNSLNCDCKVKWLVEWLAHTNTTVAPIYCASPPRFQEHKVQDLPLREFDCITTDFVLYQTLAFPAVSAEPFLYSSDLYLALAQPGVSACTILKWDYVERQLRDYDRIPAPSAVHCKPMVVDSQLYVVVAQLFGGSYIYHWDPNTTRFTRLQDIDPQRVRKPNDLEAFRIDGDWYFAVADSSKAGATSLYRWHQNGFYSHQALHPWHRDTDLEFVDGEGKPRLIVSSSSQAPVIYQWSRTQKQFVAQGEVTQVPDAQAVKHFRAGRDSYLCLSRYIGDSKILRWEGTRFSEVQALPSRGSLALQPFLVGGRRYLALGSDFSFTQIYQWDEGRQKFVRFQELAVQAPRAFCYMPAGDAQLLLAPSFKGQTLVYRHIVVDLSA

Biological target: KVβ1.2 subunit (UniProt Q14722)
Assay: co-IP

| binding | Molecule |
| --- | --- |
| binds | KV1.5 channel (from UniProt P22460 1-613) |
| binds | B1 |
